Source: the supplement of paper PMC12067093, “Discovery and optimisation of a covalent ligand for TRIM25 and its application to targeted protein ubiquitination” (Chemical Science, 2025)
This is one part of the list.

Sequences of proteins named here, by UniProt entry; tags and fusion partners are left off. A change or cut given only in a name is not applied to a line headed by its entry.
UniProt Q00610: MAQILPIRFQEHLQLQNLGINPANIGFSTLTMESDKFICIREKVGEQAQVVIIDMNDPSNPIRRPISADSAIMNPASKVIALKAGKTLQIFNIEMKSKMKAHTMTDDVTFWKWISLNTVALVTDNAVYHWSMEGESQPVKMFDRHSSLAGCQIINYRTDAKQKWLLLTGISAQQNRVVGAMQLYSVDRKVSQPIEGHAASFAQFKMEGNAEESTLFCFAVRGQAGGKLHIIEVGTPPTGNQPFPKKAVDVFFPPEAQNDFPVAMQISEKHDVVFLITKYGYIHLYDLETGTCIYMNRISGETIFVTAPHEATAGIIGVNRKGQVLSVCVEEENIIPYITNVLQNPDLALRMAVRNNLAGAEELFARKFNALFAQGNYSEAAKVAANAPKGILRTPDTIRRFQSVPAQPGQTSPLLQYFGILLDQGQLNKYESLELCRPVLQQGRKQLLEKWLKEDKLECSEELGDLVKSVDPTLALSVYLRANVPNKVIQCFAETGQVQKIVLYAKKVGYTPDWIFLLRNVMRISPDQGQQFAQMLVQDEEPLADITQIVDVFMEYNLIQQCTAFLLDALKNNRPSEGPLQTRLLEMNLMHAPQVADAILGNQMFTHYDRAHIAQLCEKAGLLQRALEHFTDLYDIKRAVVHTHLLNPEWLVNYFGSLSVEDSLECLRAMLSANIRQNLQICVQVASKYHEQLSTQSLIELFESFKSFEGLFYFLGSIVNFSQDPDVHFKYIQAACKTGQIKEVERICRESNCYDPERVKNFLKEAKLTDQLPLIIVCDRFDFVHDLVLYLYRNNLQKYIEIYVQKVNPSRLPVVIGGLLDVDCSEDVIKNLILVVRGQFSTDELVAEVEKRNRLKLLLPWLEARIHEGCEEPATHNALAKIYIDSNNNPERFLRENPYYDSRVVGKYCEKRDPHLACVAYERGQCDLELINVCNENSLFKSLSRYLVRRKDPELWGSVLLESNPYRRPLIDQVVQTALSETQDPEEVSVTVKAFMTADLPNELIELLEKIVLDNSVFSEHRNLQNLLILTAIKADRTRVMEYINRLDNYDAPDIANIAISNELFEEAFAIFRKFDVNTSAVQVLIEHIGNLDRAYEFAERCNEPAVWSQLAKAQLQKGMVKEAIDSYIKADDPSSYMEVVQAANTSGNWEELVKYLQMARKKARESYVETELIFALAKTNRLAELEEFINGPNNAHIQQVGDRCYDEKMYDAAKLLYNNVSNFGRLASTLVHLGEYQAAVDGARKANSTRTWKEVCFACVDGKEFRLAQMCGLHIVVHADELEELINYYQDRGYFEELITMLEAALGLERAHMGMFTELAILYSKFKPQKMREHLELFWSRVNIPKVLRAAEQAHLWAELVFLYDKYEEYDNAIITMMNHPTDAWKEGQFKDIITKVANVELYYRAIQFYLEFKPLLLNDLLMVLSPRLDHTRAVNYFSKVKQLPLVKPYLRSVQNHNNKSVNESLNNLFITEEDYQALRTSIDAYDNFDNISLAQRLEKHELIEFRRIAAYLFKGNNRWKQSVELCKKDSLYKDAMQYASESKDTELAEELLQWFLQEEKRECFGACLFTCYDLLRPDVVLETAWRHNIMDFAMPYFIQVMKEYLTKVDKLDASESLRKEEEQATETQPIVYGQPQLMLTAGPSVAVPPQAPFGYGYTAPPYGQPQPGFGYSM
UniProt P36222, whole entry, looked up: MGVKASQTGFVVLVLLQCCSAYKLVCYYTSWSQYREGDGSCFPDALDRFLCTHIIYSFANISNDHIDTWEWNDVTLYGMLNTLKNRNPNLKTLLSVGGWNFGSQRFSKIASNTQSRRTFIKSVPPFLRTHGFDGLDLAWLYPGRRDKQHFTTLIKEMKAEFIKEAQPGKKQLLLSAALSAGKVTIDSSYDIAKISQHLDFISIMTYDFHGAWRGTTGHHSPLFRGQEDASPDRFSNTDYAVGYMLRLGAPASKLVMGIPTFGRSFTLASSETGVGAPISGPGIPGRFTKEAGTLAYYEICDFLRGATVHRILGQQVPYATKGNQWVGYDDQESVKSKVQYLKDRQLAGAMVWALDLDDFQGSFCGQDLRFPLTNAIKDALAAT
UniProt Q14008: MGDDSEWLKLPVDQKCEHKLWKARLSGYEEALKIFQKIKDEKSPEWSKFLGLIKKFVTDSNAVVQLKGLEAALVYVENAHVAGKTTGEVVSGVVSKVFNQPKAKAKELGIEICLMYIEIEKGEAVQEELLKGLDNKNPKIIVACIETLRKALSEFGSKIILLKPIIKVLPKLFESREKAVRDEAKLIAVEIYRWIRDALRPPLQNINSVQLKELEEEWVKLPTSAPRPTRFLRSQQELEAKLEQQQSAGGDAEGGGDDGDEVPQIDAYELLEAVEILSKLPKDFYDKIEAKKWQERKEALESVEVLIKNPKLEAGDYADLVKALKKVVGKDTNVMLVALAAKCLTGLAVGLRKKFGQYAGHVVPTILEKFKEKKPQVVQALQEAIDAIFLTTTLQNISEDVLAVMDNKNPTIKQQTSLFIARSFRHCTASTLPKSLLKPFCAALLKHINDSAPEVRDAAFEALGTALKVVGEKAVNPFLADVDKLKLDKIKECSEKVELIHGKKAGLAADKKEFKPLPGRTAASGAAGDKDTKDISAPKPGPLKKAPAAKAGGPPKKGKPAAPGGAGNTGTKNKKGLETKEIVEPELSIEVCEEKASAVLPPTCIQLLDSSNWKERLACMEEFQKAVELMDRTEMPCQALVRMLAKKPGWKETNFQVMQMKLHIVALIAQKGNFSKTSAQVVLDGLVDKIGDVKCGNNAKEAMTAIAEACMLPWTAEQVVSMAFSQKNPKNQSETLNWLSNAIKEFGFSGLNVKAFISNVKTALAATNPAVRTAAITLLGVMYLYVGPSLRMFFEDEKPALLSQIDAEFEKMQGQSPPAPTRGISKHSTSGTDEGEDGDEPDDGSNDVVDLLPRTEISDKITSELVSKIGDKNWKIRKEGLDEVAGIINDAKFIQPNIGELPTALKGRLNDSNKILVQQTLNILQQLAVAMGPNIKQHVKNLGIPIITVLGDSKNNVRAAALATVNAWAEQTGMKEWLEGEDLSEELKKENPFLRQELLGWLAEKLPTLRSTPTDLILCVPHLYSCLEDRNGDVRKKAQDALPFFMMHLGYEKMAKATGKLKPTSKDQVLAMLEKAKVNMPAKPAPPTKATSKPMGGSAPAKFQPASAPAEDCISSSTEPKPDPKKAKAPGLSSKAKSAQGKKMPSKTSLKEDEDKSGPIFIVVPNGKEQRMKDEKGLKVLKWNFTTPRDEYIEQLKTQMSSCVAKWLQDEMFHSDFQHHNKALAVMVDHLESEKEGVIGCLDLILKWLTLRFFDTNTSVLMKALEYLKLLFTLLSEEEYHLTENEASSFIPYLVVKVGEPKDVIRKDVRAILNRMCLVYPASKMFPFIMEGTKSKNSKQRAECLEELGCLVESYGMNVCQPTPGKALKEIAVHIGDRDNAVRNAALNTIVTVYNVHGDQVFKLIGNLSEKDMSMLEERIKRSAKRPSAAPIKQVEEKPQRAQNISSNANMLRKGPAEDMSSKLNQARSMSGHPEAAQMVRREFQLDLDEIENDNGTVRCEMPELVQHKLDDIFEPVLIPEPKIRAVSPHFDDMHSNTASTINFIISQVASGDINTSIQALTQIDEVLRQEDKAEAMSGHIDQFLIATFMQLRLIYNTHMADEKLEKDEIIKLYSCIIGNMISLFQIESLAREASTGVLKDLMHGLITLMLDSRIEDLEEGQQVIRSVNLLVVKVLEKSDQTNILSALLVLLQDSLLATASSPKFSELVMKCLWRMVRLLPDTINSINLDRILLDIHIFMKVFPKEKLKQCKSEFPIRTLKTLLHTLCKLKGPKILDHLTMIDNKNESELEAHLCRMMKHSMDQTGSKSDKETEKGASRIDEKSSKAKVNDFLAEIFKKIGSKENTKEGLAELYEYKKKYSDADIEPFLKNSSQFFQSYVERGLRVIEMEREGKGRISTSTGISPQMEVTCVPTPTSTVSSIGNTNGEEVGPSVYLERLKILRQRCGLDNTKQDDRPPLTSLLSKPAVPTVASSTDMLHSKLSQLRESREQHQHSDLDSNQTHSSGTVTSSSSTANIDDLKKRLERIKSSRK
UniProt Q96JM3: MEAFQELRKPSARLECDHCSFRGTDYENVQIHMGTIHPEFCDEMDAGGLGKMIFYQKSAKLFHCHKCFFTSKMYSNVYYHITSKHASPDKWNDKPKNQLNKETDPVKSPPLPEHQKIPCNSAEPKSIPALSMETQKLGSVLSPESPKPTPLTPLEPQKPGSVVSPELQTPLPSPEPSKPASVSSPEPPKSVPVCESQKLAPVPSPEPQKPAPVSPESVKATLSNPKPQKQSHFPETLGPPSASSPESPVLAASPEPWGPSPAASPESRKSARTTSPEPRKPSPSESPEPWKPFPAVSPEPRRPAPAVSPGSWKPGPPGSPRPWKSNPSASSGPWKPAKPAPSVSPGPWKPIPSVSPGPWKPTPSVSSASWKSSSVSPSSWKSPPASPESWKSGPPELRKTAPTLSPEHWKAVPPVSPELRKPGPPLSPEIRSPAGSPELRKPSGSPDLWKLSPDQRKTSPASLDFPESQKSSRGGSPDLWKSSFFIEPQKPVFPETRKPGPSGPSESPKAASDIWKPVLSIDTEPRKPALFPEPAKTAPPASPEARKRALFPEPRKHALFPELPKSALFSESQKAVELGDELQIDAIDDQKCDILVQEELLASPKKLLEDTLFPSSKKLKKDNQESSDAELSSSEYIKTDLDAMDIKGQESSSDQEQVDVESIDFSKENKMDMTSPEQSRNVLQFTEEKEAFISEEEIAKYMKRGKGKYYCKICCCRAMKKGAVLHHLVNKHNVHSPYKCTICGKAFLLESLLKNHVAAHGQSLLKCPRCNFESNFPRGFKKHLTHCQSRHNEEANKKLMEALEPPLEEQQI
UniProt Q9UHD1: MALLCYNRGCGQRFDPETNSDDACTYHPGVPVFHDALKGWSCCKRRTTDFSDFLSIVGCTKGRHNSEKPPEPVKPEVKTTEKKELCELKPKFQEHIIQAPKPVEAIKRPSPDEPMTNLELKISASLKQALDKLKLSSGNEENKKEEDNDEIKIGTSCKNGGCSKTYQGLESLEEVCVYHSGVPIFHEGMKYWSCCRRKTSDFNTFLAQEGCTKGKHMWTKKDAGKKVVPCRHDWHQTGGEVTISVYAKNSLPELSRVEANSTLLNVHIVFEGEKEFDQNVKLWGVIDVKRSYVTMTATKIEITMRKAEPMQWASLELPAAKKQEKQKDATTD
UniProt Q9NRP2: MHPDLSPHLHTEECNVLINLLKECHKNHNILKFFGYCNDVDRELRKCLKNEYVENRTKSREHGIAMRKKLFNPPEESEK
UniProt Q96S66: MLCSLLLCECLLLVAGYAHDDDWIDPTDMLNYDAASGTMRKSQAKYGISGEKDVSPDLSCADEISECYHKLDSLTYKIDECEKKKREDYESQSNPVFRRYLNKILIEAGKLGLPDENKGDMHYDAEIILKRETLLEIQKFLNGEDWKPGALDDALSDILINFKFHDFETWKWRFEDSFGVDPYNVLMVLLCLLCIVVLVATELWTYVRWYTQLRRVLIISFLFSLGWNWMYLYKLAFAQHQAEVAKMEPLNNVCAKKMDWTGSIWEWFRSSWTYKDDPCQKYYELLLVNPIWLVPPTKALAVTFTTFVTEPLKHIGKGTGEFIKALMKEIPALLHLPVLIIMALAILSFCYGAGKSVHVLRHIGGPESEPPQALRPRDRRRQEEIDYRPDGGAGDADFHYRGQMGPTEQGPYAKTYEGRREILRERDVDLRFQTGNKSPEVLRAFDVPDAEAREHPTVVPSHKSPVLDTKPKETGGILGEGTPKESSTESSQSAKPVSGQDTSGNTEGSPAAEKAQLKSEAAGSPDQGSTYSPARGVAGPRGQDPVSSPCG
UniProt Q9BSY4: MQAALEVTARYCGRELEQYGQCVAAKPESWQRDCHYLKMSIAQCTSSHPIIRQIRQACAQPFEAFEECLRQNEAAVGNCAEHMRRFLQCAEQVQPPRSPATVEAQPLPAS
UniProt Q92989: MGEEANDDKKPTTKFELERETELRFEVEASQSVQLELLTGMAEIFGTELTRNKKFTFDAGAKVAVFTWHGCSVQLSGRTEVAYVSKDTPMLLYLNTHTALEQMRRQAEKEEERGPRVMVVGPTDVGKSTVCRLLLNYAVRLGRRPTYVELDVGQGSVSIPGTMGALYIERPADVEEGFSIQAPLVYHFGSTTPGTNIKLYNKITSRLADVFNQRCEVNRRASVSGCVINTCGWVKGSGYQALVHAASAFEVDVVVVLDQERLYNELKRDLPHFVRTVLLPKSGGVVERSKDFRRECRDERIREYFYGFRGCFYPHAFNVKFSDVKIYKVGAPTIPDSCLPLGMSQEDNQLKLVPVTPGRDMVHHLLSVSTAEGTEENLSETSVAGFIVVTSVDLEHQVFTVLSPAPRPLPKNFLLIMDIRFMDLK

Compound: Cc1cc(ccc1-c1ccccc1)C(=O)N1CCCN(CC1)C(=O)CCl [compound 10]
Assay: probe-labelled cysteine peptide fold change vs DMSO (competition) (log2 fold change); higher = less target engagement (more negative = stronger competition)
Conditions: THP-1, incubation time: 4 h
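Further: competitive profiling in live THP-1 cells: cysteine peptides tagged with an iodoacetamide desthiobiotin (IA-DTB) probe, intensity after compound treatment relative to DMSO-treated cells.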

## CHML_P26374_103_KKDETIQHTEAFCYASQDMEDNVEEIGALQK (UniProt P26374)
10 µM
  probe-labelled cysteine peptide fold change: -0.181
50 µM
  probe-labelled cysteine peptide fold change: -0.343

## CLPTM1_O96005_308_VSFCPLSLWR (UniProt O96005)
10 µM
  probe-labelled cysteine peptide fold change: -0.221
50 µM
  probe-labelled cysteine peptide fold change: 0.177

## CHD9_Q3L8U1_1705_ADPALCFLER (UniProt Q3L8U1)
10 µM
  probe-labelled cysteine peptide fold change: 0.0167
50 µM
  probe-labelled cysteine peptide fold change: 0.18

## CLTC_Q00610_1565_RECFGACLFTCYDLLRPDVVLETAWR (UniProt Q00610)
10 µM
  probe-labelled cysteine peptide fold change: 0.162
50 µM
  probe-labelled cysteine peptide fold change: 0.238

## CHI3L1_P36222_41_EGDGSCFPDALDR (UniProt P36222)
10 µM
  probe-labelled cysteine peptide fold change: -0.177
50 µM
  probe-labelled cysteine peptide fold change: -0.289

## CIAO1_O76071_19+34_CWFLAWNPAGTLLASCGGDR (UniProt O76071)
10 µM
  probe-labelled cysteine peptide fold change: 0.181
50 µM
  probe-labelled cysteine peptide fold change: -0.482

## CKAP5_Q14008_592_EIVEPELSIEVCEEK (UniProt Q14008)
10 µM
  probe-labelled cysteine peptide fold change: -0.274
50 µM
  probe-labelled cysteine peptide fold change: -0.0224

## CHAMP1_Q96JM3_787_HLTHCQSR (UniProt Q96JM3)
10 µM
  probe-labelled cysteine peptide fold change: 0.0546
50 µM
  probe-labelled cysteine peptide fold change: -0.388

## CHORDC1_Q9UHD1_194+195_YWSCCR (UniProt Q9UHD1)
10 µM
  probe-labelled cysteine peptide fold change: 0.199
50 µM
  probe-labelled cysteine peptide fold change: -0.489

## CIAO1_O76071_123_SVAWAPSGNLLATCSR (UniProt O76071)
10 µM
  probe-labelled cysteine peptide fold change: 0.0858
50 µM
  probe-labelled cysteine peptide fold change: 0.18

## CLUH_O75153_88_TCFSLHLDGNVLDHFSELR (UniProt O75153)
10 µM
  probe-labelled cysteine peptide fold change: 0.161
50 µM
  probe-labelled cysteine peptide fold change: -0.157

## CKAP5_Q14008_1768_TLLHTLCK (UniProt Q14008)
10 µM
  probe-labelled cysteine peptide fold change: 0.00289
50 µM
  probe-labelled cysteine peptide fold change: -0.111

## CLTA_P09496_218_LCDFNPK (UniProt P09496)
10 µM
  probe-labelled cysteine peptide fold change: -0.0392
50 µM
  probe-labelled cysteine peptide fold change: -0.182

## CHI3L1_P36222_26_LVCYYTSWSQYR (UniProt P36222)
10 µM
  probe-labelled cysteine peptide fold change: -0.287
50 µM
  probe-labelled cysteine peptide fold change: 0.142

## CLTC_Q00610_870_IHEGCEEPATHNALAK (UniProt Q00610)
10 µM
  probe-labelled cysteine peptide fold change: -0.123
50 µM
  probe-labelled cysteine peptide fold change: -0.147

## CLTC_Q00610_151_HSSLAGCQIINYR (UniProt Q00610)
10 µM
  probe-labelled cysteine peptide fold change: 0.161
50 µM
  probe-labelled cysteine peptide fold change: 0.273

## CHD2_O14647_365_VSPEDVEYFNCQQELASELNK (UniProt O14647)
10 µM
  probe-labelled cysteine peptide fold change: -0.23
50 µM
  probe-labelled cysteine peptide fold change: 0.0695

## CHD4_Q14839_396_AYHMVCLDPDMEK (UniProt Q14839)
10 µM
  probe-labelled cysteine peptide fold change: -0.067
50 µM
  probe-labelled cysteine peptide fold change: 0.347

## CMC2_Q9NRP2_14_MHPDLSPHLHTEECNVLINLLK (UniProt Q9NRP2)
10 µM
  probe-labelled cysteine peptide fold change: -0.179
50 µM
  probe-labelled cysteine peptide fold change: 0.174

## CLCC1_Q96S66_60+67_DVSPDLSCADEISECYHK (UniProt Q96S66)
10 µM
  probe-labelled cysteine peptide fold change: -0.434
50 µM
  probe-labelled cysteine peptide fold change: -0.129

## CHCHD5_Q9BSY4_44_MSIAQCTSSHPIIR (UniProt Q9BSY4)
10 µM
  probe-labelled cysteine peptide fold change: -0.00374
50 µM
  probe-labelled cysteine peptide fold change: 0.266

## CIT_O14578_1272_CAELEEALQK (UniProt O14578)
10 µM
  probe-labelled cysteine peptide fold change: 0.183
50 µM
  probe-labelled cysteine peptide fold change: 0.105

## CIAO1_O76071_308_VFQEDPNSDPQQPTFSLTAHLHQAHSQDVNCVAWNPK (UniProt O76071)
10 µM
  probe-labelled cysteine peptide fold change: 0.1
50 µM
  probe-labelled cysteine peptide fold change: 0.0187

## CIP2A_Q8TCG1_358_WLSQPLDGSENCSVLALELFK (UniProt Q8TCG1)
10 µM
  probe-labelled cysteine peptide fold change: 0.443
50 µM
  probe-labelled cysteine peptide fold change: -0.951

## CLEC11A_Q9Y240_177_LEGCLK (UniProt Q9Y240)
10 µM
  probe-labelled cysteine peptide fold change: -0.227
50 µM
  probe-labelled cysteine peptide fold change: -0.0167

## CLK3_P49761_294_EGHLVCR (UniProt P49761)
10 µM
  probe-labelled cysteine peptide fold change: 0.0229
50 µM
  probe-labelled cysteine peptide fold change: 0.42

## CLTC_Q00610_292_YGYIHLYDLETGTCIYMNR (UniProt Q00610)
10 µM
  probe-labelled cysteine peptide fold change: 0.277
50 µM
  probe-labelled cysteine peptide fold change: 0.445

## CHD3_Q12873_1464_HLCEPGADGSETFADGVPR (UniProt Q12873)
10 µM
  probe-labelled cysteine peptide fold change: -0.22
50 µM
  probe-labelled cysteine peptide fold change: 0.0467

## CHD8_Q9HCK8_680_NYSYLHCEWATISQLEK (UniProt Q9HCK8)
10 µM
  probe-labelled cysteine peptide fold change: 0.0935
50 µM
  probe-labelled cysteine peptide fold change: -0.0197

## CIC_Q96RK0_1506_VCLQLK (UniProt Q96RK0)
10 µM
  probe-labelled cysteine peptide fold change: -0.0417
50 µM
  probe-labelled cysteine peptide fold change: -0.878

## CLP1_Q92989_338_VGAPTIPDSCLPLGMSQEDNQLK (UniProt Q92989)
10 µM
  probe-labelled cysteine peptide fold change: -0.417
50 µM
  probe-labelled cysteine peptide fold change: -0.0353

## CHD1L_Q86WJ1_739_YVSGDVTHPQAGAEDALIVHCVDDSGHWGR (UniProt Q86WJ1)
10 µM
  probe-labelled cysteine peptide fold change: -0.141
50 µM
  probe-labelled cysteine peptide fold change: -0.153

## CHD8_Q9HCK8_1913_LALCQPPGPELPK (UniProt Q9HCK8)
10 µM
  probe-labelled cysteine peptide fold change: -0.261
50 µM
  probe-labelled cysteine peptide fold change: -0.169
